The supplement of paper PMC10849652
The list shows a part of the results.

The chains behind the UniProt entries cited, without tags or fusion partners. Where a name states a change or a piece, a line headed by the entry shows the natural chain unless it says otherwise.
UniProt Q96FF7: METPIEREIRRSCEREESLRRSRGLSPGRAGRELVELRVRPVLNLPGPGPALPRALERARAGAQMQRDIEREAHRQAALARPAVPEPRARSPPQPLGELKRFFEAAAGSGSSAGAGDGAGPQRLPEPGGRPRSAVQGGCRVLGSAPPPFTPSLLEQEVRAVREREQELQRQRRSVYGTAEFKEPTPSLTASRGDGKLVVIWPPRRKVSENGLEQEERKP
UniProt Q29983, whole entry, looked up: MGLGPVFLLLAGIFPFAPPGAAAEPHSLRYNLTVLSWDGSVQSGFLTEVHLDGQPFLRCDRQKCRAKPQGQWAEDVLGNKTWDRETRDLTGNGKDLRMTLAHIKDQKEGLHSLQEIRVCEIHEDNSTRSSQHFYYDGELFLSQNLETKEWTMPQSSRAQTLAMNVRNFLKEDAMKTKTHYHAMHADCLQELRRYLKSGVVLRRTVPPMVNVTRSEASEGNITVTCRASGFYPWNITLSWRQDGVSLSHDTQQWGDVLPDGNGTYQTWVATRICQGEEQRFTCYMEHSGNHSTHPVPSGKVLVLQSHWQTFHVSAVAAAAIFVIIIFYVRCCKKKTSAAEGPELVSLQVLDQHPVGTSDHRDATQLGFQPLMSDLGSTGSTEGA
UniProt Q9UBG0: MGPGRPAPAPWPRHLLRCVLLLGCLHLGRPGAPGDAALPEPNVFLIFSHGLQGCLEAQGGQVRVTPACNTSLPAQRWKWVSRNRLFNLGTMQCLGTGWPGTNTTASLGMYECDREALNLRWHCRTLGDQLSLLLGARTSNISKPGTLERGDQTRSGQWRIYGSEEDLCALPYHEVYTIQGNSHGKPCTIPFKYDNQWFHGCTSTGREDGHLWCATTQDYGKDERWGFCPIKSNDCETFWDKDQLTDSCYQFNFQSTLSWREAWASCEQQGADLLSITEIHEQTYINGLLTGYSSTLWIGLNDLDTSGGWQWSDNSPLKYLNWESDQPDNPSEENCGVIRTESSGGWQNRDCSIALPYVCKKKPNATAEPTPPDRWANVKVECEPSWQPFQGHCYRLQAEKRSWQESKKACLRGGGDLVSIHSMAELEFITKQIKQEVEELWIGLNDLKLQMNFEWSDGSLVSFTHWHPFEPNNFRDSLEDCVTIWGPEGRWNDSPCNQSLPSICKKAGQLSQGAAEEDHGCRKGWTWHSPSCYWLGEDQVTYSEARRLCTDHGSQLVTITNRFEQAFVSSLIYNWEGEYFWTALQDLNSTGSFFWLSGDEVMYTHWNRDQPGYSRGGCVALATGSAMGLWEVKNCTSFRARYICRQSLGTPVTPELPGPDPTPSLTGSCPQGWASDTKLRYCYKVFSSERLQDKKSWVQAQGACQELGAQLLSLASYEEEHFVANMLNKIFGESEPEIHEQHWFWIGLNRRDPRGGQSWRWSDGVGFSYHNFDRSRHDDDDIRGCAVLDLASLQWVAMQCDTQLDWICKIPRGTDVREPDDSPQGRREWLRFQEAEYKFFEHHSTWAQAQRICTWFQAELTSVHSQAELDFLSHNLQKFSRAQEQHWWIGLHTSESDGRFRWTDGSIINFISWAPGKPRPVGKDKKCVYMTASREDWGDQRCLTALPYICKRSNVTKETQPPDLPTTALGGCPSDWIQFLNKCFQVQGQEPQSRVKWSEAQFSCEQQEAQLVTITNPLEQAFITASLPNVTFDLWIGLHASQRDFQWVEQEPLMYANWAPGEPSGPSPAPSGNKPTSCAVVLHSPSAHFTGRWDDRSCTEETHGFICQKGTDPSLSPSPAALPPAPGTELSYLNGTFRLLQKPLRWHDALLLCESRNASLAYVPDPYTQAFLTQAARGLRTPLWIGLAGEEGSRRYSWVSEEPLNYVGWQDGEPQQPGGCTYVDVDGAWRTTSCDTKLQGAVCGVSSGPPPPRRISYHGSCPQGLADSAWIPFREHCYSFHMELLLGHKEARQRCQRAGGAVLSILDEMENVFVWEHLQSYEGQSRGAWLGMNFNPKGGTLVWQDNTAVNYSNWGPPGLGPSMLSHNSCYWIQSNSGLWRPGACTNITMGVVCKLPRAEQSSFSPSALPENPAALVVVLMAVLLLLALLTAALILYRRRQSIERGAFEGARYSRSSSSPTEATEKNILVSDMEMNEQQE
UniProt Q5JXC2: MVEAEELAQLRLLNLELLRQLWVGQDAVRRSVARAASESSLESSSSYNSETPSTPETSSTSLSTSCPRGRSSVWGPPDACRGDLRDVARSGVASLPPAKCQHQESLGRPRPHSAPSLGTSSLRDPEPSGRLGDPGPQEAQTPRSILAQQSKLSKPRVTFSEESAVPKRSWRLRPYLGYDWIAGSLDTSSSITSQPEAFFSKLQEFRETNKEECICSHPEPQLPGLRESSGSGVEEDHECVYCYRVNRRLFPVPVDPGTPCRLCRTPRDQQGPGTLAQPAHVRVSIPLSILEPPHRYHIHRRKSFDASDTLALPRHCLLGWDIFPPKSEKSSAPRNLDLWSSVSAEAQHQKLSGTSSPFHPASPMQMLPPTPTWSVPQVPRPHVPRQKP
UniProt Q15773: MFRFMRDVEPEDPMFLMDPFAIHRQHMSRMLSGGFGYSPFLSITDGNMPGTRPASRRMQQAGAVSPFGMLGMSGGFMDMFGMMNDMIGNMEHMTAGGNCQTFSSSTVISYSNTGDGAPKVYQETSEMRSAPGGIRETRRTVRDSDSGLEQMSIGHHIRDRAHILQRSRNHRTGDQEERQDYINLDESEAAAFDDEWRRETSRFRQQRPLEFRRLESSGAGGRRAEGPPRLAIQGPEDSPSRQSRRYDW
UniProt Q8N3R9: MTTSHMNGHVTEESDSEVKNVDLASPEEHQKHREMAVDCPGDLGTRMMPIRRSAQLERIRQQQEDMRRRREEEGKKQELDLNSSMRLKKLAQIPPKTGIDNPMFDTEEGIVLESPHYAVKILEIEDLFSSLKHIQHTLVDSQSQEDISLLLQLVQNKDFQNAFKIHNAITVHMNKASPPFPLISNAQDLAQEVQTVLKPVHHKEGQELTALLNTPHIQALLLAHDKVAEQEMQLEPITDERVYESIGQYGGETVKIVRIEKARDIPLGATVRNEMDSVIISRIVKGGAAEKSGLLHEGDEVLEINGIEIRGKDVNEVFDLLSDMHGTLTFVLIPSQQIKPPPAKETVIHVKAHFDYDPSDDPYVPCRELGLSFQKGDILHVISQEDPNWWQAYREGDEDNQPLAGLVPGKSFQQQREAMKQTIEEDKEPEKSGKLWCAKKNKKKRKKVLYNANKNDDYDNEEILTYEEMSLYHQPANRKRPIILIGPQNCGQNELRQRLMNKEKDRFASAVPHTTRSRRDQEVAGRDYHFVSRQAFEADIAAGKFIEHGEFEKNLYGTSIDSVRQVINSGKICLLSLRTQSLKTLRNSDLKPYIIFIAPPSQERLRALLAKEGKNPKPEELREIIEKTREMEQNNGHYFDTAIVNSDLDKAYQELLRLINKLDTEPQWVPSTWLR
UniProt Q9NP71: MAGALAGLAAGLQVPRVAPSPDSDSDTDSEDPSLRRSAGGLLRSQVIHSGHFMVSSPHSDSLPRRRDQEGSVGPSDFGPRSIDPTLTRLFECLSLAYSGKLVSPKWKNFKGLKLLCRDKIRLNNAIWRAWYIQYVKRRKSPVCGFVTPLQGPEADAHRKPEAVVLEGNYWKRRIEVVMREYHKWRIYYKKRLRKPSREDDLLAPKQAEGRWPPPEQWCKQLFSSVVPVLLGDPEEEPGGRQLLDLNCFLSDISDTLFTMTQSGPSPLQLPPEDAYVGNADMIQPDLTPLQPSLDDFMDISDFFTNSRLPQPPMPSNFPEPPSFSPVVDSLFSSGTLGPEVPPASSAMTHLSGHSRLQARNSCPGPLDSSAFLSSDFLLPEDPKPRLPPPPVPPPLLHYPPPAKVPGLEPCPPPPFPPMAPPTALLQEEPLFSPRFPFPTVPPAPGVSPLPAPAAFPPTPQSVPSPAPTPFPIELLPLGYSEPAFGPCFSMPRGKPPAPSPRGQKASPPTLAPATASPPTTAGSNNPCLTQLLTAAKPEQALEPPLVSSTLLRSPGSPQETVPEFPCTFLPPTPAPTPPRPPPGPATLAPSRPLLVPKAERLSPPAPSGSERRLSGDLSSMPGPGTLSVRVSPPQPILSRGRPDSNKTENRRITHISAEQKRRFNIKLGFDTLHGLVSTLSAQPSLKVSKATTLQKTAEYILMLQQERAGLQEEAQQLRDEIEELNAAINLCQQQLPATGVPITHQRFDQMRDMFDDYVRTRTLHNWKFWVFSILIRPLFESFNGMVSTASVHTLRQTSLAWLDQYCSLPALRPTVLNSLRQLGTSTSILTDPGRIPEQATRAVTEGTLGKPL
UniProt Q4G0A6: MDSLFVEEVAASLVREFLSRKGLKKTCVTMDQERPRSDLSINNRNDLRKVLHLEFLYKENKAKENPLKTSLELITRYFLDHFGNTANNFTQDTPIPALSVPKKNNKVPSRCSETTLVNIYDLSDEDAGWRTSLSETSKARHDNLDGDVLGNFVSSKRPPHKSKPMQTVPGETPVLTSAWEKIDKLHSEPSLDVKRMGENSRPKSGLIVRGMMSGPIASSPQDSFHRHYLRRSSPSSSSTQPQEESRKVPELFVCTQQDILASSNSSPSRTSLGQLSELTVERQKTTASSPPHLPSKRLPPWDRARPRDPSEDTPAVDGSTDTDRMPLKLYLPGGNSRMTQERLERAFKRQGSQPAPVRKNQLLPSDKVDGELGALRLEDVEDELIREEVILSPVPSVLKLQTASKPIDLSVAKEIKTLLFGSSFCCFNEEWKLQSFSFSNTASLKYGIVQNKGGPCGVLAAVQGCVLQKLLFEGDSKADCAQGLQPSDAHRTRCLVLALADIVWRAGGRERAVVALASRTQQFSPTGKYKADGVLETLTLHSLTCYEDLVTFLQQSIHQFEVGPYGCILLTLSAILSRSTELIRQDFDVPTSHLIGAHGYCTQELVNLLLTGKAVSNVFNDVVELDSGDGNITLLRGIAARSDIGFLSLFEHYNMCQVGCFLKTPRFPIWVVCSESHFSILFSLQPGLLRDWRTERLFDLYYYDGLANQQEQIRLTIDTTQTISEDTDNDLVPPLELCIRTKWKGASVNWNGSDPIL

How the values were obtained:
Assay in all cases: log2 fold change, soluble protein after heating vs DMSO (PISA); higher = thermal stabilisation; K562 lysate, 10 uM; active = over 0.2 and 3.5 SD of the protein, either way, in both replicates (recomputed)
[1] = compound: CC(=O)c1cnc2ccc(-c3cc(Cl)c(O)c(Cl)c3)nc2c1N[C@H]1CC[C@H](CN(C)C)CC1
Procedure, shortened: (§1)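 Values give the log-two fold change in thermal stability against solvent controls, from duplicates. Crude K562 extract at 1 mg/mL protein, made by dounce homogenisation in PBS pH 7.4 with 1 mM MgCl2, was treated with 10 μM compound for 30 min. After 3 min heating across 48°C-58°C, aliquots were pooled, adjusted to 0.5% NP-40 at 4°C and centrifuged at 21,000xg for 90 min. The supernatant was measured by TMTpro 16plex LC-MS/MS with channel sums equalised.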

[2] = compound: CC1=C(C(CC(=O)N1)C2=CC=C(C=C2)C(F)(F)F)C(=O)NC3=C(C=C4C(=C3)C=NN4)F
Procedure, shortened: as §1

[3] = compound: CC1=C(C2=C(C=C1)C(=O)C3=CC=CC=C3N2CCCN)C
Procedure, shortened: as §1

[4] = compound: CC1=CC=C(C=C1)SC2=C3C=C(SC3=CN=C2)C(=O)N
Procedure, shortened: as §1

[5] = compound: CCCS(=O)(=O)Nc1ccc(F)c(C(=O)c2c[nH]c3ncc(Cl)cc23)c1F
Procedure, shortened: as §1

volasertib = compound: CC[C@@H]1C(=O)N(C)c2cnc(Nc3ccc(C(=O)N[C@H]4CC[C@H](N5CCN(CC6CC6)CC5)CC4)cc3OC)nc2N1C(C)C [volasertib]
Procedure, shortened: as §1

saracatinib = compound: CN1CCN(CCOc2cc(OC3CCOCC3)c3c(Nc4c(Cl)ccc5c4OCO5)ncnc3c2)CC1 [saracatinib]
Procedure, shortened: as §1

ibrutinib = compound: C=CC(=O)N1CCC[C@@H](n2nc(-c3ccc(Oc4ccccc4)cc3)c3c(N)ncnc32)C1 [ibrutinib]
Procedure, shortened: as §1

barasertib = compound: CCN(CCCOc1ccc2c(Nc3cc(CC(=O)Nc4cccc(F)c4)[nH]n3)ncnc2c1)CCOP(=O)(O)O [barasertib]
Procedure, shortened: as §1

[6] = compound: CCn1cc(-c2ccnc3[nH]c(-c4cccc(CN(C)C)c4)cc23)c(-c2ccc(NC(=O)N(C)C)cc2)n1
Procedure, shortened: as §1

[7] = compound: CN1CCC(CNc2ccc3ncc(-c4cccc(OC(F)(F)F)c4)n3n2)CC1
Procedure, shortened: as §1

[8] = compound: CC(C)C1=C2N=C(C=C(N2N=C1)NCC3=CC=CC=C3)NCCCCCCN
Procedure, shortened: as §1

[9] = compound: CC1=C(C=C(C=C1)NC(=O)C2=CC(=CC=C2)C(C)(C)C#N)NC3=CC4=C(C=C3)N=CN(C4=O)C
Procedure, shortened: as §1

[10] = compound: CC[C@@H]1C(=O)N(C)c2cnc(Nc3ccc(C(=O)NC4CCN(C)CC4)cc3OC)nc2N1C1CCCC1
Procedure, shortened: as §1

sotrastaurin = compound: CN1CCN(c2nc(C3=C(c4c[nH]c5ccccc45)C(=O)NC3=O)c3ccccc3n2)CC1 [sotrastaurin]
Procedure, shortened: as §1

ralimetinib = compound: CC(C)(C)Cn1c(N)nc2ccc(-c3[nH]c(C(C)(C)C)nc3-c3ccc(F)cc3)nc21 [ralimetinib]
Procedure, shortened: as §1

[11] = compound: CC(C)(O)CC(=O)NCCn1ccc2ncnc(Nc3ccc(Oc4cccc(C(F)(F)F)c4)c(Cl)c3)c21
Procedure, shortened: as §1

[12] = compound: CC1=C(C=C(C=C1)NC(=O)C2=CC(=CC=C2)N(C)C)NC(=O)C3=CC=C(C=C3)O
Procedure, shortened: as §1

[13] = compound: CCn1c(C(=O)N(C2CC2)C2CC2)cc2c3c(ncn3C)c(Nc3cc(C)n(C)n3)nc21
Procedure, shortened: as §1

vemurafenib = compound: CCCS(=O)(=O)Nc1ccc(F)c(C(=O)c2c[nH]c3ncc(-c4ccc(Cl)cc4)cc23)c1F [vemurafenib]
Procedure, shortened: as §1

Measured: log2 fold change

MISP3 (UniProt Q96FF7)
inactive: [1] -0.184 | [2] -0.256 | [3] -0.072 | [4] -0.071 | [5] 0.004 | volasertib 0.08 | saracatinib 0.042

MICA (UniProt Q29983)
inactive: ibrutinib 0.077 | barasertib -0.194 | [6] -0.373 | [7] 0.139

MRC2 (UniProt Q9UBG0)
inactive: [8] -0.015 | [2] 0.002 | [3] 0.03 | [9] 0.133 | [10] 0.205 | [6] 0.053 | [7] 0.124 | saracatinib 0.301 | sotrastaurin -0.054

MIIP (UniProt Q5JXC2)
inactive: ibrutinib 0.09 | ralimetinib -0.083 | [11] 0.052 | [8] 0.037 | [9] 0.013 | [12] 0.061 | barasertib 0.122 | [13] 0.041 | sotrastaurin 0.078

MRPL22 (UniProt Q9NWU5)
inactive: [1] 0.001 | ralimetinib 0.018 | [11] -0.033 | [8] 0.058 | [2] 0.001 | [9] -0.017 | [12] 0.051 | [4] 0.069 | [5] 0.001 | volasertib -0.002 | [13] -0.069 | [6] -0.006 | [7] -0.045 | sotrastaurin -0.013

MLF2 (UniProt Q15773)
inactive: ibrutinib 0.016 | ralimetinib -0.034 | [11] 0.022 | [8] -0.003 | [2] 0.1 | [3] 0.011 | [9] 0.061 | [12] -0.018 | vemurafenib -0.047 | barasertib 0.011 | [10] 0.107 | [13] -0.007 | [6] 0.02 | [7] -0.028 | saracatinib 0.05 | sotrastaurin -0.01

MPP5 (UniProt Q8N3R9)
inactive: ibrutinib 0 | ralimetinib 0.019 | [11] -0.063 | [8] -0.079 | [2] -0.082 | [3] -0.067 | [9] 0.017 | [12] 0.014 | vemurafenib -0.029 | barasertib -0.058 | [10] -0.011 | [13] 0.042 | [6] -0.084 | [7] -0.038 | saracatinib -0.04 | sotrastaurin -0.006

MLXIPL (UniProt Q9NP71)
inactive: ralimetinib 0.137 | [11] 0.075 | [8] 0.097 | [9] -0.06 | [12] -0.097 | [13] 0.113 | [6] -0.144 | [7] 0.04 | sotrastaurin -0.024

MINDY4 (UniProt Q4G0A6)
inactive: ibrutinib 0.146 | ralimetinib -0.01 | [11] 0.04 | [2] 0.094 | [3] 0.148 | [12] 0.198 | barasertib -0.169 | [13] -0.085 | [6] -0.002 | [7] -0.011 | saracatinib -0.053
